Experimental data taken from the supplement of paper PMC12067093, “Discovery and optimisation of a covalent ligand for TRIM25 and its application to targeted protein ubiquitination” (Chemical Science, 2025).
The other results are listed elsewhere or left out.

Protein sequences, listed by entry. Tags and fused reporters are not part of them. Lines headed by an entry give the natural chain unless they say otherwise; changes in a name come on top.
UniProt Q6VN20, whole entry, looked up: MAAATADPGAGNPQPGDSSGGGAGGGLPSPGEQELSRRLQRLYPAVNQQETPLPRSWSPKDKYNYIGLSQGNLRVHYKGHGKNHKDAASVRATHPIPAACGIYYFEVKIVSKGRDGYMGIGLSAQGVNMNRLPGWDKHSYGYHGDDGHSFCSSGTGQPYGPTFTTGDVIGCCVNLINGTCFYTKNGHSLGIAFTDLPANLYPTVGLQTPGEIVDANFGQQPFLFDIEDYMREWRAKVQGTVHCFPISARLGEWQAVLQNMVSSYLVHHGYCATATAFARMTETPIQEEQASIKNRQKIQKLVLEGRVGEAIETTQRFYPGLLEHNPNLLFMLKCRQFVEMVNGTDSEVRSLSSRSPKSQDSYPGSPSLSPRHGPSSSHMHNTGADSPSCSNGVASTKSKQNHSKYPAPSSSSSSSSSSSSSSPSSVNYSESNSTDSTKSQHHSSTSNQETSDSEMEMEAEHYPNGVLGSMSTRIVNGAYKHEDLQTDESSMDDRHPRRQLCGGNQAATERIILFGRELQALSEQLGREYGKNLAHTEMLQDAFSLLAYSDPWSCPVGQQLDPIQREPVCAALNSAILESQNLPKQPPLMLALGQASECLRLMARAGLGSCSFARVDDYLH
UniProt Q7Z5J4: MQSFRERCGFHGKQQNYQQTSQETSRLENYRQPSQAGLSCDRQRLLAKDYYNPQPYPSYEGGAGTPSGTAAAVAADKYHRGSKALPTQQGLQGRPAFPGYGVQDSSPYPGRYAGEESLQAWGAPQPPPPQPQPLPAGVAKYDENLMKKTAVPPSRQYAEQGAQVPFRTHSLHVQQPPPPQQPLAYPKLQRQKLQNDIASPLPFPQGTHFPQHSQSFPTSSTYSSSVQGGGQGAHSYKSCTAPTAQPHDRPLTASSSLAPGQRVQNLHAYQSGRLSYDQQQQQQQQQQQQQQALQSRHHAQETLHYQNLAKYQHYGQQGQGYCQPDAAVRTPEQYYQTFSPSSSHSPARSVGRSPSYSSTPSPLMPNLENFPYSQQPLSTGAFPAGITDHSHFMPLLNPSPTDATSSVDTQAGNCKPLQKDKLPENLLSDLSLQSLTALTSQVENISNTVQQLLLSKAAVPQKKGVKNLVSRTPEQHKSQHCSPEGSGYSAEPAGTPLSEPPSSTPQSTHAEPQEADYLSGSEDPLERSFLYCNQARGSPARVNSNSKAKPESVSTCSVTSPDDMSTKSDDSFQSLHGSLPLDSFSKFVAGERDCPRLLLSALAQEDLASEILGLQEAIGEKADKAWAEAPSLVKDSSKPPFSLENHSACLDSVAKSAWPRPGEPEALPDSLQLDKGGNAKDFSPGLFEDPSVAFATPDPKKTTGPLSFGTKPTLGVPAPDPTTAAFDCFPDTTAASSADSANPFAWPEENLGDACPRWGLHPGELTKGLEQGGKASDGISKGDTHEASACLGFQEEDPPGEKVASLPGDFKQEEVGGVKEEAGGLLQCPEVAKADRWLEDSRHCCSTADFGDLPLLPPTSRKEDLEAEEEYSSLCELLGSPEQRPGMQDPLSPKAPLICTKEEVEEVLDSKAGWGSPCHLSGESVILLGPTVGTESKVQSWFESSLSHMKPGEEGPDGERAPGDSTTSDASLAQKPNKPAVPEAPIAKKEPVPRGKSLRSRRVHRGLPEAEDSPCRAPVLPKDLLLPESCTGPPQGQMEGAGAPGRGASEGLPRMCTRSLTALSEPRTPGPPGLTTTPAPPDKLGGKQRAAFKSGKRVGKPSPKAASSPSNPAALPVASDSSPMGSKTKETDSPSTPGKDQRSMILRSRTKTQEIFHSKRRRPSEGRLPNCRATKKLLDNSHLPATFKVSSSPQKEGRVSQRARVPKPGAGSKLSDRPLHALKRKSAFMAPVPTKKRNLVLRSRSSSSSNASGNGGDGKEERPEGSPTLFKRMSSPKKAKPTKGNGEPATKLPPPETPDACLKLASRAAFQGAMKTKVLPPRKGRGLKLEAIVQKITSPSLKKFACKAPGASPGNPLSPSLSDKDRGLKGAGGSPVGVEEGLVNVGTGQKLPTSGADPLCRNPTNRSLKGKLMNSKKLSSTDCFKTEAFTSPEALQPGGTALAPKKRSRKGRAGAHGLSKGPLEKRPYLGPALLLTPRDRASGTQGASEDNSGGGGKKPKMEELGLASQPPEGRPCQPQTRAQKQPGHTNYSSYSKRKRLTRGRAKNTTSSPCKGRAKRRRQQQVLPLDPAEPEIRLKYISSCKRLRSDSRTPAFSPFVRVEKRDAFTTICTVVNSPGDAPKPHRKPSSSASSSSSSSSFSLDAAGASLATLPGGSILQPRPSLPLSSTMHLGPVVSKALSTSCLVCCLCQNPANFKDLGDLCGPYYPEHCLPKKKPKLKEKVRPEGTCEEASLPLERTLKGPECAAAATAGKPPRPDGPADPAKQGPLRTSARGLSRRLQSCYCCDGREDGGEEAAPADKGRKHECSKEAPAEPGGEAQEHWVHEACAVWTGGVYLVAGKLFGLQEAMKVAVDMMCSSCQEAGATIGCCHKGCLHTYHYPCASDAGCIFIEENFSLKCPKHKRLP
UniProt Q9UJF2: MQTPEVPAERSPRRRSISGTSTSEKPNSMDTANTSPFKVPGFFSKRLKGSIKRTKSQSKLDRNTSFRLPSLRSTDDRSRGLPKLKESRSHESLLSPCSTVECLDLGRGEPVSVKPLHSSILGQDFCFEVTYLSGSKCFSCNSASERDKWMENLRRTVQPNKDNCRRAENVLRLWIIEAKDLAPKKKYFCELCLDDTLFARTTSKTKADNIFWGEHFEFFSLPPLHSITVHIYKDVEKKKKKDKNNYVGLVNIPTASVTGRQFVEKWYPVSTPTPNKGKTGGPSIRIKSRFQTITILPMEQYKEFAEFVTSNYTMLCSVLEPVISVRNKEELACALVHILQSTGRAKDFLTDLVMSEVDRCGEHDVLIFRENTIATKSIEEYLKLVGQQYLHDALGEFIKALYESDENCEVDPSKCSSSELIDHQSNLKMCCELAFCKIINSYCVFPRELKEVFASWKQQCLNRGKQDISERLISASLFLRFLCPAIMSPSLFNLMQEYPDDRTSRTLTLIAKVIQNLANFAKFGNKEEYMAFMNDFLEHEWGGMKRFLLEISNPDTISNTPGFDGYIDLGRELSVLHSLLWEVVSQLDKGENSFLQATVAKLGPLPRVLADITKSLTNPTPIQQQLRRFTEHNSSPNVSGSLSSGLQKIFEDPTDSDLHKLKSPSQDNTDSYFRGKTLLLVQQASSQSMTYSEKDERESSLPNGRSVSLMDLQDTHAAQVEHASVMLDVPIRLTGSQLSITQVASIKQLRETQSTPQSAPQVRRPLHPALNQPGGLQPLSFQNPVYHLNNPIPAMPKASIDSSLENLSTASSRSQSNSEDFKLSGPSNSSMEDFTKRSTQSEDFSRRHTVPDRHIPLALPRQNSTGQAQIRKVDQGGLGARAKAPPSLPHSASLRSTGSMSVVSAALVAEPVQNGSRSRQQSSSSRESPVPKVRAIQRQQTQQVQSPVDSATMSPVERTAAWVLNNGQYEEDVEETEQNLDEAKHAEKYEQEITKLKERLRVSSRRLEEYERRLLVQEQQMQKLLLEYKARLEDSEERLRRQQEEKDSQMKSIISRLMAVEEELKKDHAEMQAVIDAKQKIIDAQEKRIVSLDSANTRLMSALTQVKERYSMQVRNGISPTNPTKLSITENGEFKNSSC
UniProt Q96S59, whole entry, looked up: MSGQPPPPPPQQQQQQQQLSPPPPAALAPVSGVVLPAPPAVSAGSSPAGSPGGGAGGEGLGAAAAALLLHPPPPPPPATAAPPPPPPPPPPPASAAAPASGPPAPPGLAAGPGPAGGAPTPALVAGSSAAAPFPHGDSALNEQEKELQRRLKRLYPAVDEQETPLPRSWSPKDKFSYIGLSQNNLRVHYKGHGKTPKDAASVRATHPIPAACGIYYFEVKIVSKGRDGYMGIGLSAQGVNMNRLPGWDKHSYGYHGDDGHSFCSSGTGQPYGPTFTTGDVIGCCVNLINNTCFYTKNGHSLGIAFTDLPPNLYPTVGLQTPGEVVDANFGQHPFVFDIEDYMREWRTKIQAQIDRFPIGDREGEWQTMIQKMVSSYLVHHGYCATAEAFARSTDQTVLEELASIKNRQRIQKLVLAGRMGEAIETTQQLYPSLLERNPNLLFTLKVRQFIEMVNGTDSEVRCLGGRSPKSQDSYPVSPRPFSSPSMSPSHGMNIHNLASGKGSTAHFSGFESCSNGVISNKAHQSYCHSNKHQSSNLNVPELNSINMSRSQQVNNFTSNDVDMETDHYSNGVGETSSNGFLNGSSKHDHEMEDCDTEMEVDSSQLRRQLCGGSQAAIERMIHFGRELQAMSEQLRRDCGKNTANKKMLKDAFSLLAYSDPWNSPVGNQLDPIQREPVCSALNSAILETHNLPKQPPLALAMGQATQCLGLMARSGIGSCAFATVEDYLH
UniProt Q7Z6E9: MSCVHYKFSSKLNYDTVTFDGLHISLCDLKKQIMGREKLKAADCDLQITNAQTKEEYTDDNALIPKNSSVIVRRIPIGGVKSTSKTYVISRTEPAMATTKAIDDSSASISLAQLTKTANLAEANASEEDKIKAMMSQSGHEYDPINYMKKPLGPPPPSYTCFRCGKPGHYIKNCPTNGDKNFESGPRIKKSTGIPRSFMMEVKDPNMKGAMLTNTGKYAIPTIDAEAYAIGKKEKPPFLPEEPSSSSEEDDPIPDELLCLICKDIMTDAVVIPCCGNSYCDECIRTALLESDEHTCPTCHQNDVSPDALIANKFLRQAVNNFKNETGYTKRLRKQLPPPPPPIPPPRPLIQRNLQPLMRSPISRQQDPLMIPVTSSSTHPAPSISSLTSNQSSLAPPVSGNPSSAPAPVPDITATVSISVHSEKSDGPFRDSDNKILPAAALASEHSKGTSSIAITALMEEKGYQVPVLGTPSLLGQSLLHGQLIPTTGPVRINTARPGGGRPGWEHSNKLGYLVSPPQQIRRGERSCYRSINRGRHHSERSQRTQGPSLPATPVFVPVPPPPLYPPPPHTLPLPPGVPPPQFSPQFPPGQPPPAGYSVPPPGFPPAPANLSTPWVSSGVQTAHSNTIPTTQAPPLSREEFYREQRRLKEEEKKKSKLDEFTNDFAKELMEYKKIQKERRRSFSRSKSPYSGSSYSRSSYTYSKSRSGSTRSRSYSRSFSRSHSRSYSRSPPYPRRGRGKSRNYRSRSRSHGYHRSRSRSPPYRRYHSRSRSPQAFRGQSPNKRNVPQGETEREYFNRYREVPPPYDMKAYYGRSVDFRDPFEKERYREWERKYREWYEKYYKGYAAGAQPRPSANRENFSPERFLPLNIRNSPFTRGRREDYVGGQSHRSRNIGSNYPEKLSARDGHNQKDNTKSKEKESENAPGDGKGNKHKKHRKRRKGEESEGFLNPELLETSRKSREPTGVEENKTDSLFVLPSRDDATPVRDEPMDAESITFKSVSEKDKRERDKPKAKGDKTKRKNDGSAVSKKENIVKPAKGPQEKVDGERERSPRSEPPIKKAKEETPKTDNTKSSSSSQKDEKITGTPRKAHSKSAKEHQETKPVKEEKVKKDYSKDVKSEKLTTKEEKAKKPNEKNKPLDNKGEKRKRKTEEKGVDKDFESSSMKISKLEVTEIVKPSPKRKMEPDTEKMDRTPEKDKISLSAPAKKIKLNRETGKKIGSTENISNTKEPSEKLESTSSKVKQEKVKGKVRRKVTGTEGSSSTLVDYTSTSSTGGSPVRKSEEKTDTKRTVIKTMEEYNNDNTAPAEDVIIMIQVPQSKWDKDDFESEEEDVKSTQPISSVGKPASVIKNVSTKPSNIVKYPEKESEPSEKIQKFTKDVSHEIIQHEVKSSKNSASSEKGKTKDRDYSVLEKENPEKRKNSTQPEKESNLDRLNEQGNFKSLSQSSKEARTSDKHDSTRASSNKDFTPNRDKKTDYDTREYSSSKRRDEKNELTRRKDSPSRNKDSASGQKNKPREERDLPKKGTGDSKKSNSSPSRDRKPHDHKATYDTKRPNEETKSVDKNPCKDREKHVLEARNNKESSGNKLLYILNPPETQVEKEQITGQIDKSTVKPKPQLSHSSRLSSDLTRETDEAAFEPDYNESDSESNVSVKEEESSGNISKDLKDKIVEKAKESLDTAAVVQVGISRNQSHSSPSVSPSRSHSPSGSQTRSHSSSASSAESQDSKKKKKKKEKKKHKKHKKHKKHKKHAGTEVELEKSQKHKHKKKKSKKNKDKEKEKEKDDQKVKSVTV
UniProt Q9H2L5: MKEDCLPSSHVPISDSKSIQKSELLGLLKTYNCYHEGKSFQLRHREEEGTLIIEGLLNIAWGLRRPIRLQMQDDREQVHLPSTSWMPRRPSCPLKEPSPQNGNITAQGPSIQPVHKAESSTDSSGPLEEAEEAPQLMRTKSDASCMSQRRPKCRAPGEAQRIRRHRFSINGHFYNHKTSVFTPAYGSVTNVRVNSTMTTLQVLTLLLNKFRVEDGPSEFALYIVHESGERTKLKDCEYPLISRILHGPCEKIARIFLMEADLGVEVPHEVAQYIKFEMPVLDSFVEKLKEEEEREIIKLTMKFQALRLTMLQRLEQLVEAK

Compound: Cc1cc(ccc1-c1ccccc1)C(=O)N1CCCN(CC1)C(=O)CCl [compound 10]
Assay: probe-labelled cysteine peptide fold change vs DMSO (competition) (log2 fold change); higher = less target engagement (more negative = stronger competition)
Conditions: THP-1, incubation time: 4 h
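Further: competitive profiling in live THP-1 cells: cysteine peptides tagged with an iodoacetamide desthiobiotin (IA-DTB) probe, intensity after compound treatment relative to DMSO-treated cells.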

Target | probe-labelled cysteine peptide fold change (10 µM) | probe-labelled cysteine peptide fold change (50 µM)
RANBP10_Q6VN20_610_AGLGSCSFAR (UniProt Q6VN20) | 0.149 | 0.0734
RBM12_Q9NTZ6_545_VCAHITNIPFSITK (UniProt Q9NTZ6) | 0.115 | -0.0693
RBBP9_O75884_163_FTDCGHFQNTEFHELITVVK (UniProt O75884) | -0.11 | -0.0199
RANGAP1_P46060_169_ILAAALTECHRK (UniProt P46060) | -0.159 | -0.379
RAI1_Q7Z5J4_828_EEAGGLLQCPEVAK (UniProt Q7Z5J4) | -0.199 | -0.303
RECQL4_O94761_1088_TFQAFHSVAFPSCGPCLEQQDEER (UniProt O94761) | -0.0505 | -0.422
RASAL2_Q9UJF2_333_EELACALVHILQSTGR (UniProt Q9UJF2) | 0.198 | 0.357
RANBP9_Q96S59_678_EPVCSALNSAILETHNLPK (UniProt Q96S59) | -0.0619 | 0.131
RBBP6_Q7Z6E9_296+299_TALLESDEHTCPTCHQNDVSPDALIANK (UniProt Q7Z6E9) | -0.117 | -0.635
RBBP7_Q16576_97_VHIPNDDAQFDASHCDSDKGEFGGFGSVTGK (UniProt Q16576) | -0.456 | -0.54
RASSF4_Q9H2L5_33_TYNCYHEGK (UniProt Q9H2L5) | 0.0346 | -0.039
RC3H1_Q5TC82_143_KLVTLVHCQLVEEEGR (UniProt Q5TC82) | 0.0192 | -0.0389
RASAL2_Q9UJF2_360_CGEHDVLIFR (UniProt Q9UJF2) | 0.00381 | -0.0441
RDH11_Q8TC12_133_HLHVLINNAGVMMCPYSK (UniProt Q8TC12) | -0.119 | -0.396
